PubChem BioAssay AID1259424 – University of Nebraska Medical Center | 2018

Assay: 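Find knockdowns that reproduce the expression shifts seen after KSR1 loss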 (primary screen)
System: human HCT116 colon cancer cells
Reagents: siRNA pool against human genes, 50 nM
Measured: 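Log2 levels of six mRNAs (branched-DNA multiplex), adjusted by two reference genes and the non-targeting median, then scored against the average KSR1 knockdown pattern as Pearson r and euclidean distance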
Scale: mean correlation with KSR1 profile: higher = expression change more like KSR1 knockdown
This is an unselected part of about 14,000 reagents. 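Higher correlation or smaller distance means closer resemblance to KSR1 loss; control wells, including KSR1 knockdowns, recur on many plates.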 Not all columns of the deposit are shown. Not stated in the record: the time to read-out.

With knock-down of TUT7, the record shows mean correlation with KSR1 profile 0.529. With knock-down of PRKD2, the screen gave mean correlation with KSR1 profile 0.377. Silencing of CR1 resulted in: mean correlation with KSR1 profile 0.414. TGIF1 gave mean correlation with KSR1 profile -0.47. RTN4RL2 scored mean correlation with KSR1 profile -0.362. Against DUSP4 the deposit lists mean correlation with KSR1 profile 0.00519.

Against PTER, the values are mean correlation with KSR1 profile -0.42. With knock-down of RPRM the results were mean correlation with KSR1 profile 0.724. ADRA2B showed mean correlation with KSR1 profile 0.863. Silencing of CLN3 came out at: mean correlation with KSR1 profile -0.207. PLEKHJ1 gave mean correlation with KSR1 profile -0.254. For ALDH3A2 the deposit lists mean correlation with KSR1 profile 0.619.

Against PKP3, the entry reads mean correlation with KSR1 profile 0.204. For CCDC22, the entry reads mean correlation with KSR1 profile -0.015. Against TRA2A, the entry reads mean correlation with KSR1 profile 0.677. Depletion of COL18A1 came out at: mean correlation with KSR1 profile -0.176. STK10 scored mean correlation with KSR1 profile 0.0608. AFAP1 scored mean correlation with KSR1 profile 0.544.

With knock-down of ZBTB21, the record shows mean correlation with KSR1 profile -0.174. With knock-down of STYX the results were mean correlation with KSR1 profile -0.0679. PPP1R14B scored mean correlation with KSR1 profile 0.252. Against UCHL5 the deposit lists mean correlation with KSR1 profile -0.295. Depletion of IPO5 came out at: mean correlation with KSR1 profile -0.297. For GYG1 the deposit lists mean correlation with KSR1 profile -0.505.

With knock-down of WNK3, the screen gave mean correlation with KSR1 profile -0.0113. With knock-down of USP49, the screen gave mean correlation with KSR1 profile -0.4. After knock-down of KCNH8 the results were mean correlation with KSR1 profile 0.327. MAP2K3 gave mean correlation with KSR1 profile 0.0607. Depletion of VPS36 came out at: mean correlation with KSR1 profile -0.773. POLD4 scored mean correlation with KSR1 profile -0.345.

Against KCND3, the values are mean correlation with KSR1 profile -0.418. ZNF133 scored mean correlation with KSR1 profile -0.401. Depletion of ERCC6 resulted in: mean correlation with KSR1 profile 0.5. CAMSAP3 gave mean correlation with KSR1 profile -0.429. Against CDR2 the deposit lists mean correlation with KSR1 profile -0.619. With knock-down of RCOR1 the results were mean correlation with KSR1 profile 0.596.
